Data: PubChem BioAssay AID504467 (National Center for Advancing Translational Sciences (NCATS), 2011)
In all, about 330,000 compounds went through this assay and about 7,700 (2.3%) were called active. This list was built around the results that the source calls inconclusive (neither active nor inactive); the mix of calls is not that of the screen. Calls follow the shape of the dose curve; as a rule, active = well fitted inhibition curve with a large enough effect; inconclusive = small, poorly fitted or top-dose-only effect, or effect the other way; inactive = flat fitted curve, though single readings scatter. Where the call is inconclusive, the potency comes from a doubtful curve fit.
% is scaled to controls: 0 for no effect and ±100 for the full control effect; potency is read from the fitted curve at half-maximal effect.

Assay: qHTS screen for small molecules that inhibit ELG1-dependent DNA repair in human embryonic kidney (HEK293T) cells expressing luciferase-tagged ELG1; also: nearly all actives have a fitted effect of over 55% in size
Settings: HEK293T ELG1-luciferase reporter, luminescence, 16 h, DNA damage induced by 5-fluorouridine; activity change, negative = inhibition: at 46.1 µM (top of the series)
Summary of the method: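 In this reporter screen, reduction of luminescence relative to DMSO vehicle indicated activity. Compounds and 5-fluorouridine were added together to 2,000 cells per well, incubated for 16 hr at 37 °C, then developed with ONE-Glo.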
In the case of `COc1ccc2nccnc2c1[N+](=O)[O-]`, the “activity change, negative = inhibition” value was inactive: -3.7%.
For `CCOc1ccc(C2CC(=O)NC3=C2C(=O)CCC3)cc1` (centres undefined), the Potency was inconclusive: 29.1 µM [activator, partial curve, poor fit].
With `Cc1ccc(C)c(C(=O)Nc2c(C(N)=O)oc3ccccc23)c1` the Potency was inconclusive: 29.1 µM [inhibitor, partial curve, poor fit].
In the case of `CCOc1ccc(CC(=O)Nc2sc(Cc3ccccc3)c(C)c2C(N)=O)cc1OCC`, the Potency was inconclusive: 7.31 µM [inhibitor, partial curve, poor fit].
In the case of `COc1ccc(-c2cn[nH]c2C)cc1`, the Potency was inconclusive: 10.3 µM [inhibitor, partial curve].
In the case of `C=CCn1c(SCC(=O)c2ccc(O)c(O)c2)nnc1-c1cccnc1`, the “activity change, negative = inhibition” value was inactive: -0.0737%.
For `CC(=O)C(Sc1nn(C)c(=S)s1)C(=O)Nc1ccccc1` (centres undefined), the Potency was inconclusive: 20.6 µM [activator, single point].
For `O=c1oc(CCO)cc2ccc(C#Cc3ccsc3)cc12`, the Potency was inconclusive: 6.51 µM [activator, partial curve, poor fit].
In the case of `CC1=NN(C(N)=S)C(=O)C1N=Nc1cccc(Cl)c1C` (centres undefined), the Potency was inconclusive: 8.2 µM [activator, partial curve].
For `Cc1noc(C)c1S(=O)(=O)N1CCC(C(=O)NC2CCCc3ccccc32)CC1` (centres undefined), the “activity change, negative = inhibition” value was inactive: 0.718%.
With `COc1cc(CCC(=O)Nc2ccc(Br)c(C(F)(F)F)c2)cc(OC)c1OC` the Potency was inconclusive: 20.6 µM [inhibitor, single point].
For `O=C(CCNC(=O)c1ccco1)Nc1nc(-c2ccccc2)cs1`, the Potency was inconclusive: 3.66 µM [activator, partial curve].
In the case of `COc1cc(SC)ccc1C(=O)Nc1ccccc1C#N`, the Potency was inconclusive: 1.46 µM [activator, full curve].
In the case of `Oc1ccc(C2N=C(c3ccccc3)NC(c3ccccc3)=N2)cc1`, the “activity change, negative = inhibition” value was inactive: 15.2%.
With `CC(=O)c1cc(Cl)ccc1OC(=O)c1ccco1` the “activity change, negative = inhibition” value was inactive: 12.4%.
With `O=C(CCCSc1ccccc1)Nc1nc(-c2ccco2)c(-c2ccco2)s1` the Potency was inconclusive: 29.1 µM [inhibitor, single point].
With `O=C(CCc1ccccc1)NNC(=O)Cc1ccccc1` the “activity change, negative = inhibition” value was inactive: 12.6%.
With `C=CCn1c(SC/C=C/c2ccccc2)nnc1-c1sc(N)nc1C` the “activity change, negative = inhibition” value was inactive: -2.54%.
With `CC1CCCN(C(=O)C2CCN(c3ncnc4c3nc3n4CCCCC3)CC2)C1` (centres undefined) the Potency was inconclusive: 20.6 µM [inhibitor, single point].
With `Cc1n[nH]c(C)c1N1C(=O)c2cccc3cc(Br)cc(c23)C1=O` the “activity change, negative = inhibition” value was inactive: -1.91%.
In the case of `CCCNC(=O)C(Cc1ccccc1C)NC(=O)c1ccc(C(F)(F)F)cc1` (centres undefined), the “activity change, negative = inhibition” value was inactive: 22.4%.
With `Cc1ccc2c(c1)-n1c(nc3cc(Cl)ccc3c1=O)C(Cc1ccccc1)NC2=O` (centres undefined) the Potency was inconclusive: 23.1 µM [inhibitor, single point].
For `CCOC(=O)c1c(C)oc2ccc(OCC(=O)C(C)(C)C)cc12`, the Potency was inconclusive: 5.8 µM [inhibitor, single point].
In the case of `COc1ccccc1N(C)S(=O)(=O)c1ccc(C(=O)Nc2ccc3nc(C)sc3c2)cc1`, the Potency was active: 25.9 µM.
With `Cc1cc(-c2ccccc2)cc(-c2ccccc2)[n+]1C` the Potency was active: 11.6 µM.
For `CC1CCN(CC(=O)Nc2ccccc2C(=O)NC2CC2)CC1`, the “activity change, negative = inhibition” value was inactive: 13.5%.
For `COc1cccc(NC(=O)C(c2ccccc2)N2CCN(CC(=O)N3CCOCC3)CC2)c1` (centres undefined), the “activity change, negative = inhibition” value was inactive: 6.77%.
With `Fc1ccccc1CSc1ncn[nH]1` the Potency was inconclusive: 14.6 µM [activator, single point].
With `O=c1/c(=C\c2ccc(O)cc2)sc2nc(-c3ccccc3)c(-c3ccccc3)n12` the “activity change, negative = inhibition” value was inactive: 2.79%.
For `Cc1cc2cc(CNC(=O)c3cccc([N+](=O)[O-])c3)ccc2[nH]1`, the Potency was inconclusive: 16.4 µM [inhibitor, single point].
In the case of `CCN(CC)S(=O)(=O)c1ccc(Cl)c(NC(=O)COC(=O)c2cccn2C)c1`, the Potency was active: 14.6 µM.
In the case of `COc1ccc(N(CC(=O)O)S(=O)(=O)c2ccccc2[N+](=O)[O-])c(OC)c1`, the Potency was inconclusive: 25.9 µM [activator, partial curve, poor fit].
For `COc1ccc2cc(C(=O)C3CCCN(Cc4cccc(C)n4)C3)ccc2c1` (centres undefined), the Potency was inconclusive: 29.1 µM [inhibitor, single point].
In the case of `Cc1ccc2[nH]c3c(c2c1)CCc1cn[nH]c1-3`, the “activity change, negative = inhibition” value was inactive: 14%.
In the case of `COc1ccc(/C=C2/C(=O)N(CC3CCCO3)C(=S)N2C)c(OC)c1` (centres undefined), the “activity change, negative = inhibition” value was inactive: -4.43%.
In the case of `CS(=O)(=O)c1ccc(Cl)c(NC(=O)CCl)c1`, the Potency was inconclusive: 29.1 µM [inhibitor, single point].
In the case of `CCC/C(=N/NC(=O)c1csc(C)c1C)c1ccc(Cl)s1`, the Potency was inconclusive: 29.1 µM [activator, single point].
In the case of `CC(C)N(CC(=O)Nc1ccc(Cl)cc1C(F)(F)F)C(=O)CCl`, the Potency was inconclusive: 5.8 µM [inhibitor, partial curve].
For `Cn1c(CNC(=O)c2ccccc2)nnc1SCC(=O)Nc1nccs1`, the “activity change, negative = inhibition” value was inactive: -18.3%.
For `Cc1cc(-c2nnc(CCC(=O)NCc3cc(F)cc(C(F)(F)F)c3)o2)no1`, the Potency was inconclusive: 23.1 µM [activator, partial curve, poor fit].
In the case of `CCSc1nnc(Nc2ccc(C)cc2)s1`, the Potency was inconclusive: 7.08 µM [activator, full curve, poor fit].
For `Nc1nnc(-c2cc3ccccc3oc2=O)s1`, the Potency was inconclusive: 13 µM [activator, partial curve].
With `COc1cccc2cc(C(=O)Nc3cccc(C)n3)c(=O)oc12` the Potency was inconclusive: 2.91 µM [activator, full curve].
With `COc1cccc(-c2nnc(SCc3cccnc3)o2)c1` the Potency was inconclusive: 2.91 µM [activator, single point].
With `O=C(CNC(=O)c1ccc2ccccc2c1)NC1CCCCC1` the Potency was inconclusive: 16.4 µM [activator, partial curve].
In the case of `CCC(CC)c1nnc(NC(=O)[C@@H](NC(=O)c2cccc(C)c2)C(C)C)s1`, the “activity change, negative = inhibition” value was inactive: -3.34%.
For `CC(NCc1ccc2c(c1)OCO2)C(=O)N1CCc2ccccc21` (centres undefined), the “activity change, negative = inhibition” value was inactive: -0.81%.
With `O=C(Nn1cc(C(=O)Nc2ccc(F)cc2F)c2ccccc2c1=O)c1cnccn1` the Potency was inconclusive: 5.8 µM [inhibitor, full curve].
With `Cc1noc(C)c1CSc1nc2sc(C)c(C)c2c(=O)n1-c1ccccc1` the Potency was inconclusive: 32.6 µM [activator, single point].
With `CCC(=O)Nc1cc2nn(-c3ccc(OC)cc3)nc2cc1C` the Potency was inconclusive: 0.82 µM [activator, full curve].
In the case of `COc1ccc(-c2cc(-c3ccco3)[nH]c(=O)c2C#N)cc1OC`, the Potency was inconclusive: 29.1 µM [inhibitor, single point].
In the case of `O=C(CCN1C(=O)c2ccccc2C1=O)Nc1sc2c(c1C(=O)NCC1CCCO1)CCC2` (centres undefined), the “activity change, negative = inhibition” value was inactive: -11.3%.
With `COc1ccc(OCCn2c(NC(=O)c3ccco3)nc3ccccc32)cc1` the Potency was active: 12.6 µM.
In the case of `COC(=O)[C@@H](C)NC(=O)c1ccc2oc(CCc3ccccc3)nc2c1`, the Potency was inconclusive: 11.6 µM [activator, partial curve].
With `COc1ccccc1/C=C/C(=O)NCCc1ccccn1` the Potency was inconclusive: 16.4 µM [activator, partial curve].
In the case of `CCOC(=O)N1CCN(C(=O)CS(=O)(=O)c2cn(Cc3cccc(F)c3)c3ccccc23)CC1`, the Potency was inconclusive: 18.4 µM [inhibitor, single point].
In the case of `Cc1ccc(-c2cc(C(=O)N/N=C\c3cnn(C)c3C)c3ccccc3n2)cc1C`, the “activity change, negative = inhibition” value was inactive: -17%.
For `Cc1cccc(OCCCC(=O)NCC(=O)Nc2cccc(C)c2C)c1`, the “activity change, negative = inhibition” value was inactive: -19.8%.
For `COc1ccc(NC(=O)CSc2nc3sc(C)cc3c(=O)n2C)c(OC)c1`, the Potency was inconclusive: 16.4 µM [inhibitor, partial curve, poor fit].
In the case of `CC1CC2(CCCCC2)Nc2c1ccc1ccccc21` (centres undefined), the “activity change, negative = inhibition” value was inactive: -1.95%.
In the case of `N#CCC(=O)N/N=C/c1ccc(OCc2ccccc2)cc1`, the Potency was inconclusive: 18.3 µM [activator, single point].
For `CN(c1ccc(C(=O)Nc2ccc(F)cc2F)cc1)S(=O)(=O)c1ccccc1`, the Potency was active: 14.6 µM.
With `O=C(/C=C/c1ccc(OC2CSC2)cc1)c1ccccc1` the Potency was inconclusive: 20.6 µM [activator, partial curve].
For `CCOc1ccc2nc(NC(=O)Nc3ccccc3)sc2c1`, the Potency was inconclusive: 9.2 µM [activator, partial curve].
In the case of `NC(=O)C1CCN(CC(=O)Nc2cc(S(=O)(=O)N3CCOCC3)ccc2N2CCCC2)CC1`, the “activity change, negative = inhibition” value was inactive: 9.68%.
In the case of `CCN(CC)CCNCC(=O)N1c2ccccc2CCc2ccc(NC(=O)OC)cc21`, the “activity change, negative = inhibition” value was inactive: -12.2%.
With `O=C(CSc1nc(-c2ccco2)cc(C(F)(F)F)n1)N1CCN(Cc2ccccc2)CC1` the Potency was inconclusive: 29.1 µM [inhibitor, single point].
With `CCOc1ccc(Br)cc1S(=O)(=O)Nc1cccc(S(=O)(=O)N(C)c2ccccc2)c1` the “activity change, negative = inhibition” value was inactive: -6.59%.
For `CC(C)C(=O)NC(=S)Nc1ccc(CN2CCOCC2)cc1`, the “activity change, negative = inhibition” value was inactive: 15.5%.
With `O=C(NC1CCCCCC1)C(=S)NC1CCCCC1` the Potency was inconclusive: 5.17 µM [activator, single point].
With `COC(=O)c1c(NC(=O)c2ccco2)sc2c1C(C(=O)OC)CC2` (centres undefined) the Potency was inconclusive: 20.6 µM [inhibitor, partial curve, poor fit].
In the case of `COCc1cccc(C2=CC(=O)C[C@H](c3ccc(F)cc3)C2)c1`, the Potency was inconclusive: 3.66 µM [inhibitor, single point].
In the case of `O=C(Cc1ccccc1)NCCSCc1ccccc1`, the Potency was inconclusive: 20.6 µM [activator, single point].
For `CN(C)/C=N/c1ncc(C(=O)c2ccc(Cl)cc2)s1`, the Potency was inconclusive: 20.6 µM [activator, partial curve, poor fit].
